The text below walks through data of patent US20120289593A1.

Chains of the proteins cited; added tags and fusions are not shown. Lines headed by an entry give the natural chain unless they say otherwise; changes in a name come on top. Residues count along the entry.
UniProt P04114, residues 28-4563: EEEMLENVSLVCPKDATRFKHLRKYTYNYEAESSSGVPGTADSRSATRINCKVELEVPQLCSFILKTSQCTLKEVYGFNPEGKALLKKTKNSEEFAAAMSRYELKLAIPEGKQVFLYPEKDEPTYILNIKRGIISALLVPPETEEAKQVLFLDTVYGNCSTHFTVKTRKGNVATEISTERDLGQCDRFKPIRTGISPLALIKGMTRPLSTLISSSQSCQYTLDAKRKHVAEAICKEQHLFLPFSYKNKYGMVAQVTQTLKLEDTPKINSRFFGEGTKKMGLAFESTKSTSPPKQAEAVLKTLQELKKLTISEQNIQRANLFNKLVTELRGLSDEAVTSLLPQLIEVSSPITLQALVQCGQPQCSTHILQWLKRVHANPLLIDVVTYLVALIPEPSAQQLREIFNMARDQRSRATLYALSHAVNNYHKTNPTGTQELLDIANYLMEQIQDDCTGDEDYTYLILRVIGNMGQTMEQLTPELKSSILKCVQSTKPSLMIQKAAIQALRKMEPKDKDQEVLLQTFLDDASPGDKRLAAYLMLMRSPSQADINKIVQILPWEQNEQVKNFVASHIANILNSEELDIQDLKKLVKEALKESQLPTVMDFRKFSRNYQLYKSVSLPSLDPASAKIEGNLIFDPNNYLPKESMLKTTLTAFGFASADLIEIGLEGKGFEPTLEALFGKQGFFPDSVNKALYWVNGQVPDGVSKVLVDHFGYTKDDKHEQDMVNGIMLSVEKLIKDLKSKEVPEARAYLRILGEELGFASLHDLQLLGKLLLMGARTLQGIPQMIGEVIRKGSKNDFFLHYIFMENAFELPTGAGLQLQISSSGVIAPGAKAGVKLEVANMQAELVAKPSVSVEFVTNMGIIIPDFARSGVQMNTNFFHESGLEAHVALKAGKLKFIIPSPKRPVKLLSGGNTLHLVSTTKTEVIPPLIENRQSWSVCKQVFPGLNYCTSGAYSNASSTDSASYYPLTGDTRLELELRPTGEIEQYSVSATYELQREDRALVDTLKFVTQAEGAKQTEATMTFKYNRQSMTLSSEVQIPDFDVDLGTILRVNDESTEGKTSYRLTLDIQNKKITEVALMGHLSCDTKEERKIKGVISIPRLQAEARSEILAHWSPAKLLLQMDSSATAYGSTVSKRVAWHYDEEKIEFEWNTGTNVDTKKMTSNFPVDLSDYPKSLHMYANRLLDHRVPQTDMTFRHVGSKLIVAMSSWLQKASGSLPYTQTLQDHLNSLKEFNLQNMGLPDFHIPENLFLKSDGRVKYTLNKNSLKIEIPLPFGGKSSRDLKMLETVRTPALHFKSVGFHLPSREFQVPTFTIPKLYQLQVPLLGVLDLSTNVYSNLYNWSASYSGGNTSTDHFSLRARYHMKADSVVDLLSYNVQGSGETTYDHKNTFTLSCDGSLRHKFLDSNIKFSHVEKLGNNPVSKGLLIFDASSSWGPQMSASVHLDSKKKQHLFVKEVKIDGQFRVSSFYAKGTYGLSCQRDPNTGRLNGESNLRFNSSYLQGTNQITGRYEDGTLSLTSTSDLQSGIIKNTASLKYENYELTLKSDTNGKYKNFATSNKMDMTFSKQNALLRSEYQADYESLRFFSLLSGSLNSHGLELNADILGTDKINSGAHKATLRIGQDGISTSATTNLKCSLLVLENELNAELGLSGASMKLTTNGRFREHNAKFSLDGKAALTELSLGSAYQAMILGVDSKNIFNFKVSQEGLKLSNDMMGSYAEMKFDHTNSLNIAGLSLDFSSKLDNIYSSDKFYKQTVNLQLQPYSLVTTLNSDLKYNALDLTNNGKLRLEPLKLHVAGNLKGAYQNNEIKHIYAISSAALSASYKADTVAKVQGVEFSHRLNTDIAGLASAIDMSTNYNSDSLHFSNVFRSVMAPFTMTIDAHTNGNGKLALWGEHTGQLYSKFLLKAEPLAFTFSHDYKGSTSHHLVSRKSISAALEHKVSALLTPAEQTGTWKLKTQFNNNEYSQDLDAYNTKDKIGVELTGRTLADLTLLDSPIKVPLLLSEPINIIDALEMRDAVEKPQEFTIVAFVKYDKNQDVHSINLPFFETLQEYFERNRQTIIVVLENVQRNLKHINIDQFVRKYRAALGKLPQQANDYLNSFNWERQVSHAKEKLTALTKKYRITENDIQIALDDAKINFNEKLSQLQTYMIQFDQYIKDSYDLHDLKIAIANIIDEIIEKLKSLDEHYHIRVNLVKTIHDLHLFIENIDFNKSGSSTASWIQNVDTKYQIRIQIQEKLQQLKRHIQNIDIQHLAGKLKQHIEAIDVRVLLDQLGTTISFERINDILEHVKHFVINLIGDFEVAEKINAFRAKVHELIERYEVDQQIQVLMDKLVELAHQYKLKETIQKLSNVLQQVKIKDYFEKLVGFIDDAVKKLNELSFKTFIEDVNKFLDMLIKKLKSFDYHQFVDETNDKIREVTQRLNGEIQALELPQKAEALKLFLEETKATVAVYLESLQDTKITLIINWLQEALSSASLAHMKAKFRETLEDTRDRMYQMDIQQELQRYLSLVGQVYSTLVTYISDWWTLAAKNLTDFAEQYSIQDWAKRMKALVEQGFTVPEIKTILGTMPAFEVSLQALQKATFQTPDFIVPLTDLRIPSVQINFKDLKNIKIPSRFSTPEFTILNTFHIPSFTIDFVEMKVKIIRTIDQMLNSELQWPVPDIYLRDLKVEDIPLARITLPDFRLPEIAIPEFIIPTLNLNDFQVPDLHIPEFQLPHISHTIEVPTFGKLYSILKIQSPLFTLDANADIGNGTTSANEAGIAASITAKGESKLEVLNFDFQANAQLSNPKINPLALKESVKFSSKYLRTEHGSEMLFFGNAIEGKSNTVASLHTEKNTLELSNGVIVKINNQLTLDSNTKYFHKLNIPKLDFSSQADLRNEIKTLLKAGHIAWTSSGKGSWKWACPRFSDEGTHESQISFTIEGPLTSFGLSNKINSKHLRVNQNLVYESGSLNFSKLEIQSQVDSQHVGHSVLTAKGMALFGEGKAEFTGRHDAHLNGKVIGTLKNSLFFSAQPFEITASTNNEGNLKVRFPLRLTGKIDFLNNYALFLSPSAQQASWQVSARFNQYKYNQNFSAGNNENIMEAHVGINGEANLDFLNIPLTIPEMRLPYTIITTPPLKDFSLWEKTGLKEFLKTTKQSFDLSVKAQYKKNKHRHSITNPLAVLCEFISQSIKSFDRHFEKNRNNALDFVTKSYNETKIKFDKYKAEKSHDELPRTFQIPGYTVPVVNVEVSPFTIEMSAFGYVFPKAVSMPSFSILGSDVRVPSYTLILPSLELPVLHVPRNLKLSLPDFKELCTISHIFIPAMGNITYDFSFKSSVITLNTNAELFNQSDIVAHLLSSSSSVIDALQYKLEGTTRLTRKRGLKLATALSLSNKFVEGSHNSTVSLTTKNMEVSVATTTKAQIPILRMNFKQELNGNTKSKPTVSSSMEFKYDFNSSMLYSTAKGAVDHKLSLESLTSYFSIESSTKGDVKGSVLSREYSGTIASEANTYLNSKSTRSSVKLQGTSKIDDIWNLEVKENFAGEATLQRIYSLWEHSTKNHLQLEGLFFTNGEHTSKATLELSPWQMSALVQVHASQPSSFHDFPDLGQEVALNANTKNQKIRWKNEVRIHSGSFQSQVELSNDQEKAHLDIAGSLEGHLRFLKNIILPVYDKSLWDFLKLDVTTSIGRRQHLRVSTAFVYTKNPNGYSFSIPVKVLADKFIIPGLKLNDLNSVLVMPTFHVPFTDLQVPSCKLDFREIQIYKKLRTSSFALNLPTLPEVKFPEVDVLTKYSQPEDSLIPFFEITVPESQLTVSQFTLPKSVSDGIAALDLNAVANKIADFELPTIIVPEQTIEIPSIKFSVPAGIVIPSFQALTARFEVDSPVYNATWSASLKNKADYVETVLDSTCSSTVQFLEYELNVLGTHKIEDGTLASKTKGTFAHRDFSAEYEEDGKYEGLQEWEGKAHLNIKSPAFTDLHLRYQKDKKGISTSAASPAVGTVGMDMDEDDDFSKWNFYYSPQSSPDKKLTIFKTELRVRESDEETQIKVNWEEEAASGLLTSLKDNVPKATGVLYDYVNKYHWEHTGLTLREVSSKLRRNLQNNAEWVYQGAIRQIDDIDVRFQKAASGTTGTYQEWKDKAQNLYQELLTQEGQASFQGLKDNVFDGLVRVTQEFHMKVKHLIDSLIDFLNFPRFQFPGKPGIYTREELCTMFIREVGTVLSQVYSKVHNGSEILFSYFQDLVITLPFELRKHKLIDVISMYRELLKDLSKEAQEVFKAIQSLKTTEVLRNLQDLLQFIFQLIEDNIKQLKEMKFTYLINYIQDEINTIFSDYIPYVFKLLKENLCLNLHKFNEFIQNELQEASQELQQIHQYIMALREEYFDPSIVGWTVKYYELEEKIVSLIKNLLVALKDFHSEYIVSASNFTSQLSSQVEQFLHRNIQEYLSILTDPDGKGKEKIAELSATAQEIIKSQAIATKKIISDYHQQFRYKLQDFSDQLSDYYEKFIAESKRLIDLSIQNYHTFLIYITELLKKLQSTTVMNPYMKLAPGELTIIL
UniProt Q99523: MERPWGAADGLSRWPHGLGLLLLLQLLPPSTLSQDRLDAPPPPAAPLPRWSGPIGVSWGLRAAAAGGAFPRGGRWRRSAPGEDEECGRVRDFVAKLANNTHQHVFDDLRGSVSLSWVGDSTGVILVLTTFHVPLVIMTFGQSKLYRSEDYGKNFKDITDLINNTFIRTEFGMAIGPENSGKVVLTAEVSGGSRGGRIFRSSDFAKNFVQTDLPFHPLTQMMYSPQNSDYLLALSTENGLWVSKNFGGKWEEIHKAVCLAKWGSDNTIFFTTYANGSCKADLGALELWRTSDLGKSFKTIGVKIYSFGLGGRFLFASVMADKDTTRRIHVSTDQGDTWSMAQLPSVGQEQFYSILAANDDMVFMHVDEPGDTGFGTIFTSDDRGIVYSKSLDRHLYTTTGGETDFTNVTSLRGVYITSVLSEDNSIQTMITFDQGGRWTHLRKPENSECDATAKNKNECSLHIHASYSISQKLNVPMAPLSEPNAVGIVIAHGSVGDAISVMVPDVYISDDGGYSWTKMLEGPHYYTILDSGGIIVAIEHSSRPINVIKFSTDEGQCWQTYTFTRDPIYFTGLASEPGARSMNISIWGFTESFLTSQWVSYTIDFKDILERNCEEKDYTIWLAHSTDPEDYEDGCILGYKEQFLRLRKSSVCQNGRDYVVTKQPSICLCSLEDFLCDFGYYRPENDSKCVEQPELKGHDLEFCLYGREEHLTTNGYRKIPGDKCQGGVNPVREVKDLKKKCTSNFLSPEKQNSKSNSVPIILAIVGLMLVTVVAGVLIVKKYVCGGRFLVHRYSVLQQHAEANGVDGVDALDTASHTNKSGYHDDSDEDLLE

These are yes or no findings as the source states them, for the method shown. For part of these data: Binding seen in cells or lysates may run through a third protein. Some binding calls cover weakened binding; strength is not graded here.

Assay [1] has as its target apoB-100 in HuH-7 cells (UniProt P04114). Kind of assay: reciprocal co-immunoprecipitation, HuH-7 cells transfected with SORT1.
Assay [2] shares this target. In words: reciprocal co-immunoprecipitation from crosslinked lysate of SORT1-overexpressing HuH-7 cells, Western blot. (In general: In western blotting, separated proteins are transferred to a membrane and probed.)
The target in assay [3] is apoB in human LDL particles (human) (UniProt P04114). Kind of assay: surface plasmon resonance sensorgrams.

Consider “sortilin in SORT1-overexpressing HuH-7 cells (from UniProt Q99523 78-831) (receptor)”, for which the binding entry with apoB-100 in HuH-7 cells [1] and in the assay with apoB-100 in HuH-7 cells [2] was “binds” in each case. In the case of “recombinant sortilin (human sortilin, immobilized) (from UniProt Q99523 78-755) (receptor)”, in assay [3], the binding result is “binds”.
